These are yes or no findings as the source states them, for the method shown. In cells and extracts the contact can be indirect. Binding can be weak; no strength is given. For some of these results: Where a sequence is shown, tags or fusion partners need not be part of it.
What was measured:
[1] = biological target: T1, Flag-tagged FBXO3 (human) (UniProt Q9UK99); experiment: co-IP; HEK293T cotransfected with Flag-tagged FBXW11 or FBXO3 and GFP-tagged NF1 domains; MG132 for 6 hours before lysis (15 uM in the legend, 15 mM in the methods); anti-FLAG M2 affinity gel at 4°C overnight; washes with 250 mM NaCl/IP lysis buffer; anti-GFP immunoblotting
T1 sequence: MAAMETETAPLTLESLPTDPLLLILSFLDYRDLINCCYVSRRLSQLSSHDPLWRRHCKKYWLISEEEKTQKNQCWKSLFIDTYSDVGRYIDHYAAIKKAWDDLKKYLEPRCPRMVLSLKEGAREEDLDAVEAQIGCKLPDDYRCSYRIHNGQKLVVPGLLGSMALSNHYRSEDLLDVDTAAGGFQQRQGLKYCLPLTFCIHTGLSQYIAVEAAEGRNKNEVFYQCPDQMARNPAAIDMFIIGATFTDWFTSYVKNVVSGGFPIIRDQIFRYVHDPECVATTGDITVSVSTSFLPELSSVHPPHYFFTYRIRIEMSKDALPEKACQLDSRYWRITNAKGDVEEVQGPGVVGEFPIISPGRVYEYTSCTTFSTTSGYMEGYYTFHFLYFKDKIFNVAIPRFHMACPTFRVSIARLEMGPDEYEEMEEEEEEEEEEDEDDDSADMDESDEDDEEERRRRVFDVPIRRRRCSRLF

Amino acid sequences for entries named in this document (tags omitted). A change or cut given only in a name is not applied to a line headed by its entry.
UniProt Q9UKB1: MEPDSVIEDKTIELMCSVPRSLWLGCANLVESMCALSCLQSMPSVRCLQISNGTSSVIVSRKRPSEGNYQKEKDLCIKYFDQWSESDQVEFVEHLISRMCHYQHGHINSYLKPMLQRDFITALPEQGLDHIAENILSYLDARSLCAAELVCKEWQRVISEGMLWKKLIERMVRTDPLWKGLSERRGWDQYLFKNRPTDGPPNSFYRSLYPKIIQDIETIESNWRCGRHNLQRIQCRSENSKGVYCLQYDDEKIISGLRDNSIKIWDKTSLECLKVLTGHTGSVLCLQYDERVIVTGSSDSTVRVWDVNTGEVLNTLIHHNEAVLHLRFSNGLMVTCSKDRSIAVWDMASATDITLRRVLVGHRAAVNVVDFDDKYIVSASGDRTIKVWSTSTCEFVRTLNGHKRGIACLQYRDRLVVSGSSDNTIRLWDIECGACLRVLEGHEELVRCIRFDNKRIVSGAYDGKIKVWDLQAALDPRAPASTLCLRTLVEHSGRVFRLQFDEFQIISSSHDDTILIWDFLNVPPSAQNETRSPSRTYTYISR
UniProt P21359: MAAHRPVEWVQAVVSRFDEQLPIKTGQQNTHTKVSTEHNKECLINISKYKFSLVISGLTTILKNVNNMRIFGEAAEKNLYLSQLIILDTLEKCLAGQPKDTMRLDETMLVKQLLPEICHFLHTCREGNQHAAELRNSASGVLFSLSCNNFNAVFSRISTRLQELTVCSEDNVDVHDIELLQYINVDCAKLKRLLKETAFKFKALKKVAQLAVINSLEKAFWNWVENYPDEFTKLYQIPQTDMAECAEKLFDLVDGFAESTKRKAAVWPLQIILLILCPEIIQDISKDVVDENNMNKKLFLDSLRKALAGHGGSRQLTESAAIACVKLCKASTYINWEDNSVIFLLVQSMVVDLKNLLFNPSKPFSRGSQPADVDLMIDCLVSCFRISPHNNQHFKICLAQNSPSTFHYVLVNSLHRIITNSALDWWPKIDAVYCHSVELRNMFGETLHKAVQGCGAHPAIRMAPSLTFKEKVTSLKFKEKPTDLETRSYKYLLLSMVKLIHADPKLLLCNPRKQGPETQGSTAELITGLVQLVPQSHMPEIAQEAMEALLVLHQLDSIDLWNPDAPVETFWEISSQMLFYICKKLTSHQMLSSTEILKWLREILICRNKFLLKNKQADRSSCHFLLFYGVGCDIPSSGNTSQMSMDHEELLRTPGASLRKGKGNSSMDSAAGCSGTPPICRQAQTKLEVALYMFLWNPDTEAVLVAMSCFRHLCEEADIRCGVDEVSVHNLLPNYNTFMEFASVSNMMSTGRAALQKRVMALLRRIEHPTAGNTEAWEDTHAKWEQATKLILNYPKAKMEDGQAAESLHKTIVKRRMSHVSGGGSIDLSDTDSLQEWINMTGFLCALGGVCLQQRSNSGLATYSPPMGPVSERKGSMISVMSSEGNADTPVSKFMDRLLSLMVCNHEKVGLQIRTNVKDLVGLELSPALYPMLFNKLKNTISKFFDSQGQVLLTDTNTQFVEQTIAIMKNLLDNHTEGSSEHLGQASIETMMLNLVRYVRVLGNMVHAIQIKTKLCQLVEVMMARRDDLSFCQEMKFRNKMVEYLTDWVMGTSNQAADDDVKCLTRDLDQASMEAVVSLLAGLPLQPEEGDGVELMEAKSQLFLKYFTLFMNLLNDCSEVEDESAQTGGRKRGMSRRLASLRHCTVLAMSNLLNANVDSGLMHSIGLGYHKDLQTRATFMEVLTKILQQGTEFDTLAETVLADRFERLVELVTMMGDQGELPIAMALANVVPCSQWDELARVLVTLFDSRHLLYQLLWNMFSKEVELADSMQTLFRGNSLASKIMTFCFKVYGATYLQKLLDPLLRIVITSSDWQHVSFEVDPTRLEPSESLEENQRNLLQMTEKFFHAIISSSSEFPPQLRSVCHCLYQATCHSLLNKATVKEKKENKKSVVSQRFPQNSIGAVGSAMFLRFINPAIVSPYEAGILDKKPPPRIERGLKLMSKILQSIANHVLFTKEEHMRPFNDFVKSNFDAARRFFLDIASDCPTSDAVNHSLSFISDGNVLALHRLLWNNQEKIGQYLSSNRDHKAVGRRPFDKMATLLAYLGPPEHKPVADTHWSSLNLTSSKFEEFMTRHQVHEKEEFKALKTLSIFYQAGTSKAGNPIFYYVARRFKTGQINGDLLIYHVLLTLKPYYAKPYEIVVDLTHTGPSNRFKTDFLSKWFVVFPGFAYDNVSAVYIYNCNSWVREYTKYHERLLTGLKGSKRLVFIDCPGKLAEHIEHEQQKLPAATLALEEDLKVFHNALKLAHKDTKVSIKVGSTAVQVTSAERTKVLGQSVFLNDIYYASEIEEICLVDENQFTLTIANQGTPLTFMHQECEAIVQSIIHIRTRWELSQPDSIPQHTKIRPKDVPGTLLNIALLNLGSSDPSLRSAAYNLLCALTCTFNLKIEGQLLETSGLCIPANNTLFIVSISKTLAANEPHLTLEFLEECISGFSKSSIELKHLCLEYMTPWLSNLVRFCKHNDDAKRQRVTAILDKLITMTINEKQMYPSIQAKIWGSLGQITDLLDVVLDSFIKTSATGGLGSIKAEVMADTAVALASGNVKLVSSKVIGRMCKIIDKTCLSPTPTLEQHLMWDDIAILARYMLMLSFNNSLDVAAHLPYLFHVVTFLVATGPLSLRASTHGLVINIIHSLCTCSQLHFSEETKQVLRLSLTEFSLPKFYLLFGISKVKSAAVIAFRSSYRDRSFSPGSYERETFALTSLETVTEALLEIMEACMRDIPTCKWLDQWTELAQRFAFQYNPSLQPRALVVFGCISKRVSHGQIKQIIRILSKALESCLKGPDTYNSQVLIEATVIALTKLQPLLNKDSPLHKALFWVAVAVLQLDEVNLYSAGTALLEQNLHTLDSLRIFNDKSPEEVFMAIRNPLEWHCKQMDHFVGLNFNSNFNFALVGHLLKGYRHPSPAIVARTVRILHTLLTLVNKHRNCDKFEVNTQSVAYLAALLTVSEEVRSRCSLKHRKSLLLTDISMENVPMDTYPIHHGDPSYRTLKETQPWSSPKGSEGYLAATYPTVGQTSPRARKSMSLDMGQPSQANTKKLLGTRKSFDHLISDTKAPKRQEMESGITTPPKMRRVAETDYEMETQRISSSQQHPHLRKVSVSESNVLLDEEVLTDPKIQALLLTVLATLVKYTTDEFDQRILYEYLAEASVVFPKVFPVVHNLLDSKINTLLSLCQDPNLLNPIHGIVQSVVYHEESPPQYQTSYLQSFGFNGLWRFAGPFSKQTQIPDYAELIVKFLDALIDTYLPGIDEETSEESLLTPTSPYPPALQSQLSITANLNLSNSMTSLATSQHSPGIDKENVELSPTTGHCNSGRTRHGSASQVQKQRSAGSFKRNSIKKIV

[2] = biological target: Flag-tagged FBXW11 (human) (UniProt Q9UKB1); experiment: as above
[3] = biological target: GFP-tagged neurofibromin domain D3 iso1/GRD1 (human) (UniProt P21359); experiment: co-IP; HEK293T cotransfected with GFP-tagged GRD1 (wild type or phosphodegron mutants) and Flag-FBXW11; anti-GFP IP 72 hours after transfection; FBXW11 detected by Flag immunoblotting

“GFP-tagged neurofibromin domain D3 iso2/GRD2 (from UniProt P21359) (domain or fragment)” was tested, and the binding [1] was “binds” and the binding [2] was “no binding”.
With “Flag-tagged FBXW11 (from UniProt Q9UKB1 1-542)” the binding [3] was “binds”.
For “GFP-tagged neurofibromin domain D3 iso1/GRD1 (from UniProt P21359-2) (domain or fragment)”, the binding [2] was “binds”.
